Experimental data reported in doi:10.1101/2025.05.13.653872.

The chains behind the UniProt entries cited, without tags or fusion partners. Where a name states a change or a piece, a line headed by the entry shows the natural chain unless it says otherwise.
UniProt Q9I040: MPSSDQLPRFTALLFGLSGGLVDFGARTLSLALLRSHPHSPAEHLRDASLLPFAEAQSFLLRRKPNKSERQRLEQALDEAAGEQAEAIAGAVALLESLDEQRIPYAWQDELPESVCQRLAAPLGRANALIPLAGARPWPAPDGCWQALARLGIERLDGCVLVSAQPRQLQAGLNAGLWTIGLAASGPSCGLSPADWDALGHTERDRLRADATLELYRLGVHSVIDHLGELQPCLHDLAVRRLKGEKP

B1: T18-PA3518, bacterial two-hybrid fusion (protein, UniProt Q9HY91 1-328)
chain: MNTRNFSLPQLQNLPIEEARIVADALAVHATSRQIDSAASKLAALAEAGLKGDRQAYAAYQQLLYVLSLSDDVATAQTRRWLARAIYRVEERFMPAADLSRALSEEDFQKRLEQEIAAQSRERHPMSQYVFSGSASRAQLQVFLRHQWFRTFRLYRDAADLLVNLTDVDEAAALARYLYGELGEEDEKGSHPRLLAKLLEAIGLEADFQAVSTMPEEIAYLNNRARAFRHAEVGWGLAVFYITELVVPGNHEKLYRALLQAGLSEDQAEYYKVHISLVPPRAKREWQLIARRIPDVQFQNAFLTSLSQHFRVERAYYDAIWEEMQSVK
B2: T18-PqsD, bacterial two-hybrid fusion (protein, UniProt P20582 1-337)
chain: MGNPILAGLGFSLPKRQVSNHDLVGRINTSDEFIVERTGVRTRYHVEPEQAVSALMVPAARQAIEAAGLLPEDIDLLLVNTLSPDHHDPSQACLIQPLLGLRHIPVLDIRAQCSGLLYGLQMARGQILAGLARHVLVVCGEVLSKRMDCSDRGRNLSILLGDGAGAVVVSAGESLEDGLLDLRLGADGNYFDLLMTAAPGSASPTFLDENVLREGGGEFLMRGRPMFEHASQTLVRIAGEMLAAHELTLDDIDHVICHQPNLRILDAVQEQLGIPQHKFAVTVDRLGNMASASTPVTLAMFWPDIQPGQRVLVLTYGSGATWGAALYRKPEEVNRPC
B3: T18-PhnA, bacterial two-hybrid fusion (protein, UniProt P09785 1-530)
chain: MGARRWLVSGVGYRLEESLEYRTLVPEALSIWRMAGANRMLFDCFDVDSKAARRSVAILSSCLRIECWGRDVVLRALNSNGRALLAPLSEDCPAQVTCLRDGDTLHWRFPQEESHADEWRRLHGLSSLEALRRVLGTLGDAEGPVLLGGLFSFDLAEQFEPLPAPAEPARHCPDYLFLVPELLLDIDHLARRTSLQAFVHDPAGHDRLAASLRQCADEFHGAVEEASESPVAGVRAGNYQVDLDDASFARQVERLQAHVRAGDVFQIVPSRSFSMPCADPWRAYRQLCLRNPSPYRFFLDAGDFCLFGASPESALKYDAESREVELYPIAGTRPRGRDARGAIDAELDNRLEAELRLDAKEIAEHMMLVDLARNDLARVCRSGTRQVRDMLKVDRYSHVMHLVSRVAGELHGELDALHAYRACLNMGTLVGAPKVRAMQLLRQYEDGYRGSYGGAIGILDSAGNLDTSIVIRSAEVREGIARVRAGAGVVLDSDPRLEAEETRNKALAVLTAVAAAERERGERDAHHAVG

Molecular target: T25-PcrP, bacterial two-hybrid fusion (P. aeruginosa PAO1) (UniProt Q9I040)
Assay: two-hybrid; bacterial two-hybrid (BACTH) in E. coli BTH101, pcrP in pKT25 and partners in pUT18C, 0.5 mM IPTG, 30°C; blue/white colonies on X-gal and β-galactosidase activity (Miller units)

Binder	binding
B1	binds
B2	no binding
B3	no binding

No constants are given. Whether binding was seen depends on the method and setting. Binding can be weak; no strength is given. Where a sequence is shown, tags or fusion partners need not be part of it.
